The values below come from patent US10858414 (dated 2020).

The data set in a line: general procedure: hybrid (solid and solution phase) peptide synthesis; preloaded Fmoc-Leu-Wang resin (0.81 mmol/gram); HBTU/OxymaPure/DIPEA; DIC/DMAP for Cam ester formation. The following applies: coupling step.

Regarding “PTC-Phe-^1His-^2Ala-^3Glu-^4Gly-^5Thr-^6Phe-^7Thr-^8Ser-^9Asp-^10Val-^11Ser-^12Ser-^13Tyr-^14Leu-^15Glu-^16Gly-^17Gln-^18Ala-^19Ala-^20Lys-^21Glu-^22Phe-^23Ile-^24Ala-^25Trp-^26Leu-^27Val-^28Arg-^29Gly-^30Arg-^31Gly-OH”, the “crude LC-MS purity” value was found to be 82 area %.

As to “PTC-Phe-^1His-^2Aib-^3Glu-^4Gly-^5Thr-^6Phe-^7Thr-^8Ser-^9Asp-^10Val-^11Ser-^12Ser-^13Tyr-^14Leu-^15Glu-^16Gly-^17Gln-^18Ala-^19Ala-^20Lys-^21Glu-^22Phe-^23Ile-^24Ala-^25Trp-^26Leu-^27Val-^28Arg-^29Gly-^30Arg-^31Gly-OH”, the outcome is recorded as “The coupling failed” and the “crude LC-MS purity” value amounted to 80 area %.
